Some entries share one result that the patent states for a list of compounds. Some ranges recur; such a range may be that of the whole group of compounds.
Legend:
SCR adults = assay: Attraction to baited traps relative to controls (summary); conditions: summary statement
NCR = assay: as above; type: in vivo, Diabrotica barberi; conditions: summary statement
Excerpt: 4-Methylphenylethanol, 4-chlorophenylethanol, 4-fluorophenylethanol, phenylethanol, phenylpropanol, 4-methoxyphenylethanol, 3-methoxyphenylethanol, 2-methoxyphenylethanol, 4-methoxyphenylpropanol, phenylethylamine, and phenylpropylamine attract NCR at rates approximately 5-50 times controls.

Row | SMILES | rate of attraction of SCR relative to controls (SCR adults) | rate of attraction of NCR relative to controls (NCR)
1 | O=CC=Cc1ccccc1 [XII, cinnamaldehyde] | 5-20 times | 
2 | NCCc1ccccc1 [phenylethylamine] |  | 5-50 times
3 | NCCCc1ccccc1 [phenylpropylamine] |  | 5-50 times

Reference: patent publication US6613317B1, “Volatile attractants for diabrotica species” (priority 1988, dated 2003)
